No constants are given. Whether binding was seen depends on the method and setting. For some assays here: In cells and extracts the contact can be indirect. Some entries that bind do so weakly or less than the wild type. For some assays here: Sequences can lack the tags named with a protein.
Key:
[1] = molecular target: T1, VSIG10L full-length (co-IP) (human) (UniProt Q86VR7); experiment: co-immunoprecipitation, VSIG10L-FLAG with AXL-HA co-expressed in cells
T1 sequence (looked up): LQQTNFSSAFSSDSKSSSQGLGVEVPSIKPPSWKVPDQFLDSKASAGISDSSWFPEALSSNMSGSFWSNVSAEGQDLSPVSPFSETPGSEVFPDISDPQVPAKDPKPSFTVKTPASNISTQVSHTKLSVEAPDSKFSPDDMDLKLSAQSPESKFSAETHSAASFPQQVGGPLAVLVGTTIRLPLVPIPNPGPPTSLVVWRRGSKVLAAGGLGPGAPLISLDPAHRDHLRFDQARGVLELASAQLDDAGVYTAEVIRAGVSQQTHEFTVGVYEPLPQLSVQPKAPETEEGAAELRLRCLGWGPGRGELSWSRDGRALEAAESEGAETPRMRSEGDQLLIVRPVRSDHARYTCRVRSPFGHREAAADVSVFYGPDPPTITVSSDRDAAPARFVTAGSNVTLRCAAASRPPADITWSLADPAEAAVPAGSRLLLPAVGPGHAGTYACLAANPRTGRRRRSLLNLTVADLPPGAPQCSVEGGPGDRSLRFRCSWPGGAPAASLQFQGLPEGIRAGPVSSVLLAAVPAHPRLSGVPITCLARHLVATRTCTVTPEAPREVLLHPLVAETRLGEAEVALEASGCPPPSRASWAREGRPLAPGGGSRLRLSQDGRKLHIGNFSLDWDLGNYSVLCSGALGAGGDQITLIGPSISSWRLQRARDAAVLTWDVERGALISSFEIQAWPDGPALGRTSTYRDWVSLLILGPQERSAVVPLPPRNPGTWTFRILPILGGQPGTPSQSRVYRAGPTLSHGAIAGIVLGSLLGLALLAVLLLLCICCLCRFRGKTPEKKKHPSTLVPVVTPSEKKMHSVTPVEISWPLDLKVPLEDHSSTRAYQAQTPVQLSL

Amino acid sequences for entries named in this document (tags omitted). Residues count along the entry.
UniProt Q9NT99, residues 36-713: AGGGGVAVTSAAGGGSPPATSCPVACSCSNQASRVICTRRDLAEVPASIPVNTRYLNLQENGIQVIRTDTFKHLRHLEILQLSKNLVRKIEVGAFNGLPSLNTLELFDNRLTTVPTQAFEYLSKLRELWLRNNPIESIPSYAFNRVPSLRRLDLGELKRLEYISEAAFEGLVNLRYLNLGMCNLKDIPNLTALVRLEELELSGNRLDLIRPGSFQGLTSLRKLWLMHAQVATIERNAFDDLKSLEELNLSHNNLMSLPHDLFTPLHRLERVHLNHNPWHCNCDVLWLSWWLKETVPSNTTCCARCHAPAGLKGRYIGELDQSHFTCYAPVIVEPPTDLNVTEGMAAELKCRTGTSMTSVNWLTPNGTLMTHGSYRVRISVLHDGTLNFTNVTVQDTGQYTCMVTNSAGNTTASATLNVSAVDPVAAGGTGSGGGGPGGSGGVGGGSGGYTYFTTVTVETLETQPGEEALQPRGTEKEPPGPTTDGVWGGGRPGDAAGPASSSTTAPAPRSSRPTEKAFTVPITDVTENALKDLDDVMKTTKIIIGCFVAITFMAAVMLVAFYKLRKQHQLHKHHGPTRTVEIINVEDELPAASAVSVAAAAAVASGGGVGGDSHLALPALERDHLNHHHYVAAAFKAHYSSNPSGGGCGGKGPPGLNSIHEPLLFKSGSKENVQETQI
UniProt P30530, residues 26-894: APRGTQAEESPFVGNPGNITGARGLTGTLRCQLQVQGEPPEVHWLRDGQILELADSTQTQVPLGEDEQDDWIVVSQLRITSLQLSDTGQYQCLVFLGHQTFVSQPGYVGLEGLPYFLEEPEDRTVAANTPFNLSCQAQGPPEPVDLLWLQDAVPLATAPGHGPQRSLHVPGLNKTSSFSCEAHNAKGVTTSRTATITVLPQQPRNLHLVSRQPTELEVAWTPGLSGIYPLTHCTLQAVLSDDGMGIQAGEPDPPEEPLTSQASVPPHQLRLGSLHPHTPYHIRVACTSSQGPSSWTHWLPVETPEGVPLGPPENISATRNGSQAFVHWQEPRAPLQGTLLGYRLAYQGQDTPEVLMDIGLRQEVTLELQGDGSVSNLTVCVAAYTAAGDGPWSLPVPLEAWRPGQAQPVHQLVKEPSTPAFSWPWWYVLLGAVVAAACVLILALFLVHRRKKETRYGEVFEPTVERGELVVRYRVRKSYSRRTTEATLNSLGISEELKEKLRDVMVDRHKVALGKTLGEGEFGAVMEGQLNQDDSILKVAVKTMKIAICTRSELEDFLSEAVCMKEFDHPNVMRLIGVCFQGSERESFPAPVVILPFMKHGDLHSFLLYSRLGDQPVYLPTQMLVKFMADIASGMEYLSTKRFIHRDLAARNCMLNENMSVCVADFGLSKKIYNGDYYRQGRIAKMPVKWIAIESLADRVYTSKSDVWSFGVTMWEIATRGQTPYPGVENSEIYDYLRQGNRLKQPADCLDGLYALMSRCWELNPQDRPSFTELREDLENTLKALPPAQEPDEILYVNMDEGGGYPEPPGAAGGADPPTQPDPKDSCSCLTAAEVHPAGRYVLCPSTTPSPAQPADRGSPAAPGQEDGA
UniProt Q8NHL6, residues 24-650: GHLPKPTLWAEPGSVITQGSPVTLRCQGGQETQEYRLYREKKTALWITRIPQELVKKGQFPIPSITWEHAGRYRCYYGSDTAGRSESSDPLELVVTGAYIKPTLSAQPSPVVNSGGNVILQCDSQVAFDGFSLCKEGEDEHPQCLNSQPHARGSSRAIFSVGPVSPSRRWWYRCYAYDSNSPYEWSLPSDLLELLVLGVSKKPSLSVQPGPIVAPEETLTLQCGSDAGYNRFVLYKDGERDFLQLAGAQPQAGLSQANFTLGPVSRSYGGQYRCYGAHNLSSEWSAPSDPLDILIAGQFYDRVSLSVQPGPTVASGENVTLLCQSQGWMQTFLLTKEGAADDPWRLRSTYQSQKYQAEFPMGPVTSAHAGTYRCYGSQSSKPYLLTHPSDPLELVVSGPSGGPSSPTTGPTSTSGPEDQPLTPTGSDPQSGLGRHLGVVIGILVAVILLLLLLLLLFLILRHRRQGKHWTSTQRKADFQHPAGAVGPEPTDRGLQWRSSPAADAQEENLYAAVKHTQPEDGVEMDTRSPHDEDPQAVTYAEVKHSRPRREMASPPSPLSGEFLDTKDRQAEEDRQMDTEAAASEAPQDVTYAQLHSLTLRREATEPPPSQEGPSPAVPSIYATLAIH
UniProt P08887, residues 20-468: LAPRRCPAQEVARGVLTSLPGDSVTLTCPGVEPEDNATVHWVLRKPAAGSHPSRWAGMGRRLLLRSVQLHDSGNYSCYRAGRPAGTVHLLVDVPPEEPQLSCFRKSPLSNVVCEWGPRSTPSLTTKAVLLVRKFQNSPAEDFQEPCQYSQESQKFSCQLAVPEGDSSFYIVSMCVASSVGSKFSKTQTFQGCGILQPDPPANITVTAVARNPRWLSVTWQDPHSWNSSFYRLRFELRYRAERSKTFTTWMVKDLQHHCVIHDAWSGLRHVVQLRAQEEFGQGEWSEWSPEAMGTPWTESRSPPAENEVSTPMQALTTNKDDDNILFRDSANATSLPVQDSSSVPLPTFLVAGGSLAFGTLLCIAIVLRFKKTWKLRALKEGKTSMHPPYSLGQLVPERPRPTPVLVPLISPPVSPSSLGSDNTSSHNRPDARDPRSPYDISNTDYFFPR
UniProt O00481, residues 30-513: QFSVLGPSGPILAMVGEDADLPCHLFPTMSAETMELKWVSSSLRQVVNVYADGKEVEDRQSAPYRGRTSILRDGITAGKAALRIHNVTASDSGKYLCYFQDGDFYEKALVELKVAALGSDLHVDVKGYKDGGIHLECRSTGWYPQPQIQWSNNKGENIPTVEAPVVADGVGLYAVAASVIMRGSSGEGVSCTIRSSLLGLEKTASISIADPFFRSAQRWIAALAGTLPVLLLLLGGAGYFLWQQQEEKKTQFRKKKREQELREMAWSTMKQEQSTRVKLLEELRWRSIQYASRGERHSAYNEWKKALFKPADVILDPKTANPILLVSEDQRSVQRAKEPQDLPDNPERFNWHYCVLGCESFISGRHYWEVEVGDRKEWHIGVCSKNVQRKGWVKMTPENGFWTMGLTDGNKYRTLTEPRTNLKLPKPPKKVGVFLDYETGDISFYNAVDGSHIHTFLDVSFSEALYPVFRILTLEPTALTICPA
UniProt P78410, residues 30-334: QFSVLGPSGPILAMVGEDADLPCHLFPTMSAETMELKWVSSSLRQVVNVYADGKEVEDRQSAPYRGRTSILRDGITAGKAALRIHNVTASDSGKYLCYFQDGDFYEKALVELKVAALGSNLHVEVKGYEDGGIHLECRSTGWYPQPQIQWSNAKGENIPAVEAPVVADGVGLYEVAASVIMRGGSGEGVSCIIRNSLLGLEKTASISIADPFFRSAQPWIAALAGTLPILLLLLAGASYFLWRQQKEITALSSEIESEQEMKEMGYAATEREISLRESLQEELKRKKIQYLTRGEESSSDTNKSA
UniProt Q9NSI5: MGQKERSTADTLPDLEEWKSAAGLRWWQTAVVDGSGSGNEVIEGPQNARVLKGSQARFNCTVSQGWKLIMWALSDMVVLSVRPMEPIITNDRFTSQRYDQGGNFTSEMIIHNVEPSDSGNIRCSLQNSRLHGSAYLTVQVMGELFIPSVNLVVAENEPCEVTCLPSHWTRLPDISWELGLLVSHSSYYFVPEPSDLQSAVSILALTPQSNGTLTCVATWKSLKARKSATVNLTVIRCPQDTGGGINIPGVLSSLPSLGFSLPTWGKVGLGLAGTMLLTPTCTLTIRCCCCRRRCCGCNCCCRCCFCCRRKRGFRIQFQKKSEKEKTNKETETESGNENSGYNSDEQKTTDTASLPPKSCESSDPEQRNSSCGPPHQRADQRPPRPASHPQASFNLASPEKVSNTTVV
UniProt Q8NHJ6, residues 22-448: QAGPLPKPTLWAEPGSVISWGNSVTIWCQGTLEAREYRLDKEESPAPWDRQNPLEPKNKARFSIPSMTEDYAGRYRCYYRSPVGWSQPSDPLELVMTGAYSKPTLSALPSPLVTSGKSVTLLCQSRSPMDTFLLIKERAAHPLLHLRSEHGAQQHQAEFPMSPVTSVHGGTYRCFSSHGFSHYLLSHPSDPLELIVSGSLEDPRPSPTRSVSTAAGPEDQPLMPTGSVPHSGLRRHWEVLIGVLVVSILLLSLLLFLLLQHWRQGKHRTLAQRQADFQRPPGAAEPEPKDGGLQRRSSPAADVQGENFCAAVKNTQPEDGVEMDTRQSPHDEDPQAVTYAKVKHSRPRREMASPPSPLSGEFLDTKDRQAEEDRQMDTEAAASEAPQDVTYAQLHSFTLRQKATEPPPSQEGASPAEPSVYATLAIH
UniProt Q92823, residues 25-1167: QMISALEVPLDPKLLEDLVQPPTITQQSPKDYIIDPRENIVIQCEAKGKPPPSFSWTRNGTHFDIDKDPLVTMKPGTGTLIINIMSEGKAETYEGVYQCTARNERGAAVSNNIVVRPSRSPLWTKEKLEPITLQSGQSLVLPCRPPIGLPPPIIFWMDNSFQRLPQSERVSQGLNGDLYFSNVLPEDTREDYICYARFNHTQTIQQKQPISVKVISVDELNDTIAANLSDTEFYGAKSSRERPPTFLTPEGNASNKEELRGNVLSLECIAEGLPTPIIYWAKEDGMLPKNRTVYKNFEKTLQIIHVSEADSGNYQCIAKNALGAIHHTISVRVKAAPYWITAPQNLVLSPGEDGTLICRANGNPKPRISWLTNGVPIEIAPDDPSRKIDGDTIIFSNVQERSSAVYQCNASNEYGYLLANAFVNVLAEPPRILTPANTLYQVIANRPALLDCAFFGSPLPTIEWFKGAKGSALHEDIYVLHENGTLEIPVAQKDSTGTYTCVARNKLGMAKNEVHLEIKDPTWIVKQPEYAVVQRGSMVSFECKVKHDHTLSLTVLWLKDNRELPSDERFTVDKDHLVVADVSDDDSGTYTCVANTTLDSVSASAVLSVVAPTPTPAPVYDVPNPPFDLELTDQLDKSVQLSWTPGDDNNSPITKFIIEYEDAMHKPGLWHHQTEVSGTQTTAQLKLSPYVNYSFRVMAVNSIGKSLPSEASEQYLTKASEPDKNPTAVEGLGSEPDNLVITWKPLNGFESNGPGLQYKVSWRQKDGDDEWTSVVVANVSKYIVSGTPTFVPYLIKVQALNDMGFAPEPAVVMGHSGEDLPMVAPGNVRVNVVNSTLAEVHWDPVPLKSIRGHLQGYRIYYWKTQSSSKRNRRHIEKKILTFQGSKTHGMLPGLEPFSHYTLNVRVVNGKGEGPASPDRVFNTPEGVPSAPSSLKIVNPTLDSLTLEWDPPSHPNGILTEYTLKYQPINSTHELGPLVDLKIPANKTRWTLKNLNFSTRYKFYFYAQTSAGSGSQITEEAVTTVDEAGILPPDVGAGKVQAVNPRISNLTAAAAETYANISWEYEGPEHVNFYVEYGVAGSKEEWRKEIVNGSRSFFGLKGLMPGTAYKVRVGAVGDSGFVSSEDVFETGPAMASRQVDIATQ
UniProt Q9Y5Y6: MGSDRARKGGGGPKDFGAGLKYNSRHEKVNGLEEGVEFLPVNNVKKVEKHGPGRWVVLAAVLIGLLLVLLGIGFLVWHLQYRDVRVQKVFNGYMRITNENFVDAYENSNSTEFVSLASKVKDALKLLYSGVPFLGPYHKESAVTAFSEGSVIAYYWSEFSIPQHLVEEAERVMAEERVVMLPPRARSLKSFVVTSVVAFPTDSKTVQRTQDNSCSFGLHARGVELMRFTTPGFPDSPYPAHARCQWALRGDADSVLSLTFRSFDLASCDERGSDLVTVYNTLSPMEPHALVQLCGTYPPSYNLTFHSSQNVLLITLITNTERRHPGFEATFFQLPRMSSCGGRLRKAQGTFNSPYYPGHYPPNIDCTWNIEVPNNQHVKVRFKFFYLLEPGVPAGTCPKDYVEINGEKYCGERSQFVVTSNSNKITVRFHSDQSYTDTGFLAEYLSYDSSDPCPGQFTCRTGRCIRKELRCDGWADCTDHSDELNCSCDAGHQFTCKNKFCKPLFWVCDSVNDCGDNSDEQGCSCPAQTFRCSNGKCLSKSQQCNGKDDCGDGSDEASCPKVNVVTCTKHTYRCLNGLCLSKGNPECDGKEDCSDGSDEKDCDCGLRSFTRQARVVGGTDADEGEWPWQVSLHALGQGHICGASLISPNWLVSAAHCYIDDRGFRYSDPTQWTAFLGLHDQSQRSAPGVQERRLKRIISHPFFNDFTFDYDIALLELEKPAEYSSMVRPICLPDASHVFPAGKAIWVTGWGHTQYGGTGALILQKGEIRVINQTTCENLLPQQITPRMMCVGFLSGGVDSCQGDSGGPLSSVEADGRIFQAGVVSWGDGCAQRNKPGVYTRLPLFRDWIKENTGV

[2] = molecular target: LRRC4B expressed on cells (human) (UniProt Q9NT99); experiment: co-immunoprecipitation, LRRC4B-FLAG with BTN3A1-HA co-expressed in cells (FIG. 12F)
[3] = molecular target: LRRC4B expressed on cells (human) (UniProt Q9NT99); experiment: co-immunoprecipitation, LRRC4B-FLAG with BTN3A2-HA co-expressed in cells
[4] = molecular target: LRRC4B expressed on cells (human) (UniProt Q9NT99); experiment: co-immunoprecipitation, LRRC4B-FLAG with BTN3A3-HA co-expressed in cells (FIG. 5I)
CD300A-HA (human) = molecular target: T2, CD300A-HA (human) (UniProt Q9UGN4); experiment: co-immunoprecipitation from co-transfected cells, IP anti-FLAG, western blot anti-HA
T2 sequence (co-expressed protein, looked up): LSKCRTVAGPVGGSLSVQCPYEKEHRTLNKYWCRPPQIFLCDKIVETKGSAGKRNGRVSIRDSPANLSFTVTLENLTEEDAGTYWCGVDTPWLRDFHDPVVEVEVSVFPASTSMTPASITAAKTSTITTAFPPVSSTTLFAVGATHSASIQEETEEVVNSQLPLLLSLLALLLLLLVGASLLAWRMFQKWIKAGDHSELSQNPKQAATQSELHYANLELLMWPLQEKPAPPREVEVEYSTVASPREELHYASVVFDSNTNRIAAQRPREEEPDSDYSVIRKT

CD300LF-HA (human) = molecular target: T3, CD300LF-HA (human) (UniProt Q8TDQ1); experiment: as above
T3 sequence (co-expressed protein, looked up): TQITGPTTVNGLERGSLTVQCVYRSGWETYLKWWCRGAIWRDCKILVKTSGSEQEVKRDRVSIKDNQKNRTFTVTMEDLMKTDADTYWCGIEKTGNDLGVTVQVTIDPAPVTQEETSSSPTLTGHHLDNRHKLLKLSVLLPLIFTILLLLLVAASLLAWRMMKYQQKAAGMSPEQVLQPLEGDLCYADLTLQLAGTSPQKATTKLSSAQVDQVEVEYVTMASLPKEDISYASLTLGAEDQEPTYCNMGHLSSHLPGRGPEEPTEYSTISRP

[5] = molecular target: AXL full-length (co-IP) (human) (UniProt P30530); experiment: co-immunoprecipitation from co-transfected cells, IP anti-FLAG, western blot
[6] = molecular target: LILRB1 expressed on cells (human) (UniProt Q8NHL6); experiment: co-immunoprecipitation, LILRB1-FLAG with IL6R-HA co-expressed in cells
[7] = molecular target: T4, EDAR expressed on cells (human) (UniProt Q9UNE0); experiment: co-immunoprecipitation from co-transfected cells, IP anti-FLAG, western blot
T4 sequence (looked up): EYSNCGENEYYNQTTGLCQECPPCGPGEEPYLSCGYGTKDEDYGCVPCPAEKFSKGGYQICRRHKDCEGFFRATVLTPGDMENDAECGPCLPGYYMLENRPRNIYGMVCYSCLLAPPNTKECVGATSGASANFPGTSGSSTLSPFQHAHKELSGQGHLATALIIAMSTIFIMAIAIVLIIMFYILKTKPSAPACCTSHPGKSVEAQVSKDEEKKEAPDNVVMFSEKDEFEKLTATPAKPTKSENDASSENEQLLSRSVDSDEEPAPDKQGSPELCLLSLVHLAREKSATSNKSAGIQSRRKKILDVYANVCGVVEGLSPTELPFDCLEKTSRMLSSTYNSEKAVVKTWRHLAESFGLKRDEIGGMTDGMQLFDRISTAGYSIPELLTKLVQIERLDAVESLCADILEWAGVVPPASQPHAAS

[8] = molecular target: IL6R expressed on cells (human) (UniProt P08887); experiment: as above
[9] = molecular target: T5, CNTFR expressed on cells (human) (UniProt P26992); experiment: as above
T5 sequence (looked up): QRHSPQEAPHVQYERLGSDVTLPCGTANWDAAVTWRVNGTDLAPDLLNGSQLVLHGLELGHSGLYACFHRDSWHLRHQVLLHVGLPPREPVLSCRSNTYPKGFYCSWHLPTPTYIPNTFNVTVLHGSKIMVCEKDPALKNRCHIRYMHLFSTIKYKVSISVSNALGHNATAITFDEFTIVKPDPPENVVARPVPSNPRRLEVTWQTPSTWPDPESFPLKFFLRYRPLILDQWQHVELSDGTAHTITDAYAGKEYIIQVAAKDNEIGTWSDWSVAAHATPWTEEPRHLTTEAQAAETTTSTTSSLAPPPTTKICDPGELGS

[10] = molecular target: T6, CNTN1 extracellular domain (human) (UniProt Q12860); experiment: SPR; CNTN1 ECD-Fc immobilized on CM5, analyte at 250 nM (FIG. 9I)
T6 sequence (looked up): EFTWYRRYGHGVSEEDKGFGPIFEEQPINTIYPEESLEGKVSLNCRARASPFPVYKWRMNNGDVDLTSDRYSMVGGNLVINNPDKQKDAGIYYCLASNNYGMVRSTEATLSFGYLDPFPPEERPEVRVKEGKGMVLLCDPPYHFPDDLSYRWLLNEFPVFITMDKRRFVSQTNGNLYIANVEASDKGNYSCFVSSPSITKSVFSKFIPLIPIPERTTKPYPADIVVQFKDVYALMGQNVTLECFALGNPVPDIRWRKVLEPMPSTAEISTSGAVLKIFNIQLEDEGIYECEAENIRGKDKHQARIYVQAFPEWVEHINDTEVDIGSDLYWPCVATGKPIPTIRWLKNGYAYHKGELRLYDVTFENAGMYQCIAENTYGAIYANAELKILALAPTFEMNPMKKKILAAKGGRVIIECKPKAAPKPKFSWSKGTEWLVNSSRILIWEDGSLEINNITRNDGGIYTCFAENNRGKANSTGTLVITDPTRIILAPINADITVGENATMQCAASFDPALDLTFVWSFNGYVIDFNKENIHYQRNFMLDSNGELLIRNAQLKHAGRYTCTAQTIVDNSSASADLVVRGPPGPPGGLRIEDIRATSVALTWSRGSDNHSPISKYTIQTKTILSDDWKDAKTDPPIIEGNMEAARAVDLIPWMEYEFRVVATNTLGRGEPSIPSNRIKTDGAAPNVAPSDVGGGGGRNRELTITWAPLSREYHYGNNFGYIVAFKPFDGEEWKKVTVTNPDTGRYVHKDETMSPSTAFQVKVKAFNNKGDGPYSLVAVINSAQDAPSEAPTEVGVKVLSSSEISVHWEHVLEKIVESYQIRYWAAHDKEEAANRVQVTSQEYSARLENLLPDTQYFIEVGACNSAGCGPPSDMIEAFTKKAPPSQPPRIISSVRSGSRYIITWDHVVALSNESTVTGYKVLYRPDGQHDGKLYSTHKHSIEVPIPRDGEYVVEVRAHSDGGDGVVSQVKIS

[11] = molecular target: BTN3A1 full-length (co-IP) (human) (UniProt O00481); experiment: co-immunoprecipitation from co-transfected cells, IP anti-FLAG, western blot anti-HA

## AXL full-length (co-IP) (from UniProt P30530 26-894) (receptor)
[1]
  binding: binds

## BTN3A1 full-length (co-IP) (from UniProt O00481 30-513) (receptor)
[2]
  binding: binds

## BTN3A2 full-length (co-IP) (from UniProt P78410 30-334) (receptor)
[3]
  binding: binds

## BTN3A3 full-length (co-IP) (from UniProt O00478 30-584) (receptor)
[4]
  binding: binds

## IGSF5-FLAG (from UniProt Q9NSI5) (receptor)
CD300A-HA (human)
  binding: binds
CD300LF-HA (human)
  binding: binds

## IL1RL1 expressed on cells (from UniProt Q01638 19-556) (receptor)
[5]
  binding: binds

## IL6R expressed on cells (from UniProt P08887 20-468) (receptor)
[6]
  binding: binds

## LILRB1 expressed on cells (from UniProt Q8NHL6 24-650) (receptor)
[7]
  binding: binds
[8]
  binding: binds

## LILRB4 expressed on cells (from UniProt Q8NHJ6 22-448) (receptor)
[9]
  binding: binds

## NRCAM (recombinant) (from UniProt Q92823 25-1167) (receptor)
[10]
  binding: binds

## ST14-FLAG (from UniProt Q9Y5Y6) (receptor)
[11]
  binding: binds

## TGOLN2-FLAG (from UniProt O43493) (receptor)
[11]
  binding: binds
